From patent US20230064254A1, “THERAPEUTIC AGENT CONTAINING FUSED PYRIMIDINE COMPOUND AS ACTIVE INGREDIENT” (TAIHO PHARMACEUTICAL CO., LTD., priority 2019, published 2023)
At least one structure is not confirmed: it was looked up by name or label, or the drawing left a doubt.

System: HIGA mice
Assay: Inhibition of decrease in renal function in IgA nephropathy mouse models (HIGA mice), blood urea nitrogen
Assay type: in vivo
Details: orally once a day for 6 weeks, fumarate of Compound 1 10 mpk, Ibrutinib 30 mpk
Description: The present test was carried out, using HIGA mice that had been reported as mouse models of IgA nephropathy (Muso et al., Kidney International 1996 50: 1946-1957). A vehicle, a fumarate of Compound 1, or Ibrutinib (Comparative Example 1) was orally administered to 14-week-old to 16-week-old HIGA mice (Japan SLC, Inc.) once a day, continuously for 6 weeks. The control mice were not IgA nephropathy mouse models (HIGA mice), but were Balb/c mice (Japan SLC, Inc.) with the same age in weeks as described above. The vehicle was 0.5% HPMC. The daily doses were set as the following: the vehicle: 10 ml/kg, the fumarate of Compound 1: 10 mpk, and Ibrutinib: 30 mpk. […] Peripheral blood was collected from […], and the urea nitrogen level in the blood was measured. Using UREA NITROGEN (BUN) Colorimetric Detection Kit (Arbor Assays), the urea nitrogen level in the blood was measured.

In the case of C=CC(=O)N1CCC[C@@H](n2nc(-c3ccc(Oc4ccccc4)cc3)c3c(N)ncnc32)C1 [Ibrutinib, reference compound], the “medicinal effects in HIGA mice (blood urea nitrogen level)” value was “medicinal effects were not observed”.
